Measured values: paper PMC10371797
These are yes or no findings as the source states them, for the method shown. In cells and extracts the contact can be indirect. Some binding calls cover weakened binding; strength is not graded here. For part of these data: Tags and fused reporters may be left off the sequences shown.

Sequences of proteins named here, by UniProt entry; tags and fusion partners are left off.
UniProt O00505: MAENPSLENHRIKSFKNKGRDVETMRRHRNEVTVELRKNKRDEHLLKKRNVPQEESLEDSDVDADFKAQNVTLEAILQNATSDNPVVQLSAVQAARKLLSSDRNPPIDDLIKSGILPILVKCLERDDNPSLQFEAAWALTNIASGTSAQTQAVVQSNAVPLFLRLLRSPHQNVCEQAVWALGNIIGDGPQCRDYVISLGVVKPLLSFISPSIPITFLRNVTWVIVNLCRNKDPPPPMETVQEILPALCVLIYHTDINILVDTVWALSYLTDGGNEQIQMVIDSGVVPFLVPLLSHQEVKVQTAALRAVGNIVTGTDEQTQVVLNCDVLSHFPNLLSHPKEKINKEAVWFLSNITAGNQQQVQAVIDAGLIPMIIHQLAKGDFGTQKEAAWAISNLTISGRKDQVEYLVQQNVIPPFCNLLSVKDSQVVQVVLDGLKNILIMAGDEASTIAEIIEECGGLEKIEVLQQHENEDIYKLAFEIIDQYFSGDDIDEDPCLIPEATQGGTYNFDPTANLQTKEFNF

Columns and labels:
Test in all cases: co-IP
PABPN1-Flag = biological target: T1, PABPN1-Flag (UniProt Q86U42)
T1 sequence: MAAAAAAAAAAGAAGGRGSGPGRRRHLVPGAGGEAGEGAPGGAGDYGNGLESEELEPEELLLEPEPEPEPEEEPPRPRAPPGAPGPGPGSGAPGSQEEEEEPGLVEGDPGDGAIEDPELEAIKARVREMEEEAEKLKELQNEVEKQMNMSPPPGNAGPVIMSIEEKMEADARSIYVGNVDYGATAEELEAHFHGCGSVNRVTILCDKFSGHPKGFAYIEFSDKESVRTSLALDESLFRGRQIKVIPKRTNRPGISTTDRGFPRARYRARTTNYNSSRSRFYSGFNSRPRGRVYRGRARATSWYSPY

[1] = biological target: T2, ZC3H11A(KR5>A/Δ661–699)-Flag (human) (UniProt O75152)
T2 sequence: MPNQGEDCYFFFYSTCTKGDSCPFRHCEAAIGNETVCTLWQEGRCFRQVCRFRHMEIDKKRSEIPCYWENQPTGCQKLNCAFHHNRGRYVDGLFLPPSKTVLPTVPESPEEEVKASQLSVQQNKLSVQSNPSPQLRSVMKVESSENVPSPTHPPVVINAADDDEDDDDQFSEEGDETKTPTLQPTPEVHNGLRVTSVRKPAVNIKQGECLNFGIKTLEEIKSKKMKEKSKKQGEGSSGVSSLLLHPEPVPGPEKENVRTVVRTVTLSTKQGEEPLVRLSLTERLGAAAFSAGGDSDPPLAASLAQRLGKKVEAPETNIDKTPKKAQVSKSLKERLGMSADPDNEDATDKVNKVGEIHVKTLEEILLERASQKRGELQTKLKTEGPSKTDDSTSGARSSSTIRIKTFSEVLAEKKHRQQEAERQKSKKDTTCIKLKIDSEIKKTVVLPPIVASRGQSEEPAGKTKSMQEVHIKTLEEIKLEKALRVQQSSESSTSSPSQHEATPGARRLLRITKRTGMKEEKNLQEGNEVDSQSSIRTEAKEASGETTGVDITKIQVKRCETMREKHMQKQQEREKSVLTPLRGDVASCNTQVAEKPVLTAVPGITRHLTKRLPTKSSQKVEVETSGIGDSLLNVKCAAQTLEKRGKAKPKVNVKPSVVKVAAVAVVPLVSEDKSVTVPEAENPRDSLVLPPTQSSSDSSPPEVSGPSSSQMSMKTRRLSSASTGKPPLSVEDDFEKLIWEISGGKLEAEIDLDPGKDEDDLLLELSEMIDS

ZC3H11A(wt)-Flag (human) = ZC3H11A(wt)-Flag (human) (UniProt O75152)

Substance	binding (PABPN1-Flag)	binding [1]	binding (ZC3H11A(wt)-Flag (human))
ZC3H11A(wt)-HA (from UniProt O75152 1-810)	binds		
karyopherin subunit alpha 3 (KPNA3), endogenous, HeLa cells (from UniProt O00505 1-521)		no binding	binds
